Experimental data reported in patent US5750499A (The Salk Institute for Biological Studies, priority 1995, dated 1998).

Experiments:
[1] = general procedure: Boc solid-phase peptide synthesis; chloromethylated resin; DCC; conditions: whole synthesis, capillary zone electrophoresis
[2] = general procedure: Boc solid-phase peptide synthesis; chloromethylated resin (styrene, 1-2% divinylbenzene; 0.5 to 2 mmol Cl/g); DCC; conditions: whole synthesis, HPLC and CZE

| Substance | final purity (method not given) [1] | final HPLC purity [2] |
| --- | --- | --- |
| PEPTIDE1{C.K.F.F.[dW].[IAmp].T.F.T.S.C}$PEPTIDE1,PEPTIDE1,1:R3-11:R3$$$V2.0 | greater than 97% |  |
| PEPTIDE1{C.K.F.F.[dW].[IAmp].T.F.T.[dS].C}$PEPTIDE1,PEPTIDE1,1:R3-11:R3$$$V2.0 |  | greater than 97% |
| PEPTIDE1{C.F.F.[dW].[IAmp].T.F.C}$PEPTIDE1,PEPTIDE1,1:R3-8:R3$$$V2.0 |  | greater than 97% |

Some peptides are written in HELM: one residue between dots, names in brackets for other building blocks, links after the first $. The same purity stands for every peptide and may come from a single statement.
